doi:10.1101/2023.10.16.562477
These are yes or no findings as the source states them, for the method shown. Binding seen in cells or lysates may run through a third protein. Binding can be weak; no strength is given.

Amino acid sequences for entries named in this document (tags omitted). A change or cut given only in a name is not applied to a line headed by its entry. Chains listed by the source or under a name are the forms on record and can include a tag or linker.
HBH-ΔF508-CFTR-3HA (P13569, form named): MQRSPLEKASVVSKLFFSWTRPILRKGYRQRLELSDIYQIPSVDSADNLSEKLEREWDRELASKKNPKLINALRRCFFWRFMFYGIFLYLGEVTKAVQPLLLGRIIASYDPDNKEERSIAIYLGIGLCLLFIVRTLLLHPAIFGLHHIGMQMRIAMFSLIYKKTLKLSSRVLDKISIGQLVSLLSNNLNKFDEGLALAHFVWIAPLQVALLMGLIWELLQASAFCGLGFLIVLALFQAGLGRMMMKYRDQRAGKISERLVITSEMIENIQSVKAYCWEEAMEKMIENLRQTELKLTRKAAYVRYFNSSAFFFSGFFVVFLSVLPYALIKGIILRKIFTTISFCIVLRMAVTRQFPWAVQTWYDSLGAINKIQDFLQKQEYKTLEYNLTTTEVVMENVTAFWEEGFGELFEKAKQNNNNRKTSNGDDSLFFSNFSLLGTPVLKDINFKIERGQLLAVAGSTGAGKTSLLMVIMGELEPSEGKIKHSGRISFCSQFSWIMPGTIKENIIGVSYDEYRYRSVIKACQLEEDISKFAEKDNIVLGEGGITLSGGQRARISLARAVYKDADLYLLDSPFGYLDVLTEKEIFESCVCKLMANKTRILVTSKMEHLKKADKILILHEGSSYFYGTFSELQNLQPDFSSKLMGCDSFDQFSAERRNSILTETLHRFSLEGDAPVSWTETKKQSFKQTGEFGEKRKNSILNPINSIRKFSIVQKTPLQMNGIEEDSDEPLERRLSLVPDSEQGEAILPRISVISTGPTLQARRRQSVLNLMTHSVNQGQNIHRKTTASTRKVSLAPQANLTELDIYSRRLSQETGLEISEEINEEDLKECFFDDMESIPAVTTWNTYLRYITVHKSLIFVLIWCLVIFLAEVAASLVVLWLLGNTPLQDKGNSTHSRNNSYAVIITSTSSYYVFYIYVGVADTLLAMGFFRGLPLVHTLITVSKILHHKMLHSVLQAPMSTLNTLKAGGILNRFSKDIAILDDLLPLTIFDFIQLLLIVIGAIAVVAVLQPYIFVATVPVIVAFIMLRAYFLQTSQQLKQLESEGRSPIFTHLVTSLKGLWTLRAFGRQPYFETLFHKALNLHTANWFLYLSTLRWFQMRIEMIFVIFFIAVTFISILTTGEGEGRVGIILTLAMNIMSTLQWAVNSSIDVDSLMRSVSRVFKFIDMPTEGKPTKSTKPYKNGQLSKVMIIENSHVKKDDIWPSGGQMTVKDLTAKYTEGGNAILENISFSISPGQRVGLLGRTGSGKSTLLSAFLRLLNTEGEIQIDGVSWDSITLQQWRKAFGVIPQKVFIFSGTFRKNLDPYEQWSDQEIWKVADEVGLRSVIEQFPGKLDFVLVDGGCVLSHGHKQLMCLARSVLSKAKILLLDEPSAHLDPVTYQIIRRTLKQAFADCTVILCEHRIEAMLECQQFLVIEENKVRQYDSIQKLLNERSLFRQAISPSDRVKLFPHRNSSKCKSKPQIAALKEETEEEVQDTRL
UniProt Q9UHD9: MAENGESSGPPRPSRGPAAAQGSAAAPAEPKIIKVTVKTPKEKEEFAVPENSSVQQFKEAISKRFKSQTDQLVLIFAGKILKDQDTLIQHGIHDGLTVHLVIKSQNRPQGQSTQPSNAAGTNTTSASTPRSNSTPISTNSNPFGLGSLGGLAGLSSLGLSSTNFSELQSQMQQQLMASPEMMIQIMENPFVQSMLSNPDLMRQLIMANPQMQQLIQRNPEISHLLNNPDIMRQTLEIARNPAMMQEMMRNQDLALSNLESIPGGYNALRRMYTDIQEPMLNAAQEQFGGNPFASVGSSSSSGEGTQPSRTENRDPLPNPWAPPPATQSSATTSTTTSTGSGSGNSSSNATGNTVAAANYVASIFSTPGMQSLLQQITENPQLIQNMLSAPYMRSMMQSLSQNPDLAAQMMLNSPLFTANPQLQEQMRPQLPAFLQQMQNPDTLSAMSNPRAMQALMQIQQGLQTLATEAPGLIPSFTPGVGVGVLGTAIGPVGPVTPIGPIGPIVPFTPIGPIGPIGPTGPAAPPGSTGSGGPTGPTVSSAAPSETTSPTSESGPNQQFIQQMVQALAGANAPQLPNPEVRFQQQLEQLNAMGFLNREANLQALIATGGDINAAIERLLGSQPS

Target: HBH-ΔF508-CFTR-3HA (BHK cells) (UniProt P13569)
Experiment: pull-down

binding: binds
Substance: FLAG-UBQLN2 with the central M domain (M) deleted (from UniProt Q9UHD9)
